Consider one substance from PMC6083452.

Protein sequences, listed by entry. Tags and fused reporters are not part of them. Lines headed by an entry give the natural chain unless they say otherwise; changes in a name come on top.
UniProt Q21731: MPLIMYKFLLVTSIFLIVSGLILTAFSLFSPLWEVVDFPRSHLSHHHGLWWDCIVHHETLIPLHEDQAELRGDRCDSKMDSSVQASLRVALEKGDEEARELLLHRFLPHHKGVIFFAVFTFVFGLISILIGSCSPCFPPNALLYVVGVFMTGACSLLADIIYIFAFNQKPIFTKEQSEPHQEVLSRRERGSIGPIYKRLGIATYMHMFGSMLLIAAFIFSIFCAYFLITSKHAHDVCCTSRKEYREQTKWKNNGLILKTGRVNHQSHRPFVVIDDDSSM

Assay [1] deals with T1, UNC-29 (C. elegans (endogenous in C. elegans)) (UniProt P48181).
T1 sequence: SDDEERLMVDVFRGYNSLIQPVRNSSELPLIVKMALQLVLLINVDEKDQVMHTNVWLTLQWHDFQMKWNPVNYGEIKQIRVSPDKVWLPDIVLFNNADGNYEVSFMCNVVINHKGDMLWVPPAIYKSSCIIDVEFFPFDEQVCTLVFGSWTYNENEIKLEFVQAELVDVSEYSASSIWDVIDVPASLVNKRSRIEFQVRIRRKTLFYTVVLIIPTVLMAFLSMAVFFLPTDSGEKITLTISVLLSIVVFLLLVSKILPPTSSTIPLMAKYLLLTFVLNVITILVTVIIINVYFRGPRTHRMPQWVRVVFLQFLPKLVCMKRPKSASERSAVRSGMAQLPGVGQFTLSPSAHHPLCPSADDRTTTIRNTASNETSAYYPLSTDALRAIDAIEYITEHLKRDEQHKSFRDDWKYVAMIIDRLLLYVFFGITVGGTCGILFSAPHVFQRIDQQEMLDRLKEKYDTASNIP
In words: co-IP; 3 mg protein extract of C. elegans expressing HPO-30::mCherry in muscles, incubated with UNC-29 and UNC-38 antibodies at 4°C for 4 h, then protein A/G beads for 3 h; 5 washes with ice-cold lysis buffer; blot with anti-mCherry; control: beads only without antibody.

For assay [2], the target named is T2, UNC-38 (C. elegans (endogenous in C. elegans)) (UniProt Q23022).
T2 sequence: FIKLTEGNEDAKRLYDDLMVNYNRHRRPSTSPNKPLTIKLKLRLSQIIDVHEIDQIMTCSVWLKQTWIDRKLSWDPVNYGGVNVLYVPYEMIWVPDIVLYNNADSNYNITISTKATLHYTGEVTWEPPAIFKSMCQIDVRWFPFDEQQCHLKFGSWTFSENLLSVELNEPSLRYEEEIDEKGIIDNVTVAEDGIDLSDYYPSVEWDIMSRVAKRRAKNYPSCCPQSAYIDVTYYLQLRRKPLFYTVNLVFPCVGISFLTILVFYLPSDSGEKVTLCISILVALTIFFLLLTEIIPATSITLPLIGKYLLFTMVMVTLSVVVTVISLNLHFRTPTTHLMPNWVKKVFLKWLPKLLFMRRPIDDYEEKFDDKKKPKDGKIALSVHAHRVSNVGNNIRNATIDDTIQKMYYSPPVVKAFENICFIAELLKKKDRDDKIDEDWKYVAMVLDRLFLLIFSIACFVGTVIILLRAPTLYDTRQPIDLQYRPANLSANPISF
The description is as above.

Results are given in words; binding and its absence hold for the method and conditions named. In cells and extracts the contact can be indirect. Binding calls can cover weak binding; strength is not graded here.

Turning to HPO-30::mCherry (from UniProt Q21731), the binding result in assay [1] and in assay [2] was “binds” in each case.
